{
  "sequences": {"note": "Amino acid sequences for entries named in this document (tags omitted).", "UniProt P18054, whole entry, looked up": "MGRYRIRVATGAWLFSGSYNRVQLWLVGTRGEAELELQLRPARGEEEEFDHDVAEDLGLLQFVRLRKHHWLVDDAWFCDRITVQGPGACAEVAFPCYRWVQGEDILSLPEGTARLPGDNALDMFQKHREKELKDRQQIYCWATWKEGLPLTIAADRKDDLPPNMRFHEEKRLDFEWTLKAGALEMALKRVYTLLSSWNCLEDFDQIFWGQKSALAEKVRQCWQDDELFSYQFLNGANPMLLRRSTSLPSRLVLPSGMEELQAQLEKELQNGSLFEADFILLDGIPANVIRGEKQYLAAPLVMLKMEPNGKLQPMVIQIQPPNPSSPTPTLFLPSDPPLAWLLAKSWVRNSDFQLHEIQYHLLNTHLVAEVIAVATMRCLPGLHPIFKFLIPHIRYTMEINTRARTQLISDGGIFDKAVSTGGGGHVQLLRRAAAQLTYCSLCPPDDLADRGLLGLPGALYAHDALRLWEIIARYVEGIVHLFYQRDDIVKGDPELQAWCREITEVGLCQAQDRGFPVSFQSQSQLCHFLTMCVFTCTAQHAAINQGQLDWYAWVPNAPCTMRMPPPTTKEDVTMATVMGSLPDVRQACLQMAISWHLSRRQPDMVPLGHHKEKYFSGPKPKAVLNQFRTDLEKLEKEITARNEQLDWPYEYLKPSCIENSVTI"},
  "source": "PubChem BioAssay AID1671190",
  "about": "(National Center for Advancing Translational Sciences (NCATS), 2021)",
  "note": "About 6,100 (1.1%) of roughly 580,000 compounds were called active. This list was built around the results that the source calls inconclusive (neither active nor inactive); the mix of calls is not that of the screen. Calls follow the shape of the dose curve; as a rule, active = well fitted inhibition curve with a large enough effect; inconclusive = small, poorly fitted or top-dose-only effect, or another doubt; inactive = no such curve, though single readings can be large or run the other way. Where the call is inconclusive, the potency comes from a doubtful curve fit. % is scaled to controls: 0 for no effect and ±100 for the full control effect; potency is read from the fitted curve at half-maximal effect.",
  "data": [
    {"target": "Polyunsaturated fatty acid lipoxygenase ALOX12 (Homo sapiens) (UniProt P18054)", "assay": "Primary qHTS assay for inhibitors of human arachidonate 12S-lipoxygenase (ALOX12): Round 2", "details": "purified 12hLO, xylenol orange hydroperoxide absorbance; activity change, negative = inhibition: at 108 µM (top of the series) unless noted", "method_in_brief": "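Purified human 12hLO at 150 nM in 25 mM Hepes, 0.01% Triton X-100, pH 7.0, preincubated 15 min at room temperature with compound. Reaction started with 40 uM arachidonic acid, 30 min at room temperature. Hydroperoxide measured by Fe-xylenol orange, 573/405 nm absorbance ratio.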", "values": [
      {"smiles": "COc1ccc(CNC(=O)Cn2c(=O)c(CNc3ccc(C)cc3)cc3cc4c(cc32)OCCO4)cc1", "Potency": "inconclusive: 14.1 µM [inhibitor, partial curve, poor fit]"},
      {"smiles": "COc1ccc(CC(=O)N2CC[C@@H](CC(=O)O)[C@@H](CCN3C[C@@H]4C[C@H](C3)c3cccc(=O)n3C4)C2)cc1", "Potency": "inconclusive: 5.01 µM [inhibitor, partial curve]"},
      {"smiles": "COc1ccccc1NC(=S)N(CCCN1CCOCC1)Cc1cn(C)c2ccccc12", "activity change, negative = inhibition": "inactive: 19%"},
      {"smiles": "CCOC(=O)c1c(NC(=S)NCCc2ccccc2)sc2c1CC(C(C)C)OC2", "note": "(configuration not stated)", "Potency": "inconclusive: 31.6 µM [inhibitor, partial curve, poor fit]"},
      {"smiles": "CC1CC(C)CN(C(=S)Nc2ccc(OC(F)F)cc2)C1", "note": "(configuration not stated)", "activity change, negative = inhibition": "inactive: -27.5%"},
      {"smiles": "CC1=Nn2c(nnc2C2CCCCC2)SC1", "activity change, negative = inhibition": "inactive: 0%"},
      {"smiles": "CCc1ccc(NC(=O)CSc2ncc(-c3ccc(F)cc3)o2)cc1", "activity change, negative = inhibition": "inactive: 1.44%"},
      {"smiles": "CC(=O)NCCNc1nc(NC(C)C)nc2cc(-c3ccccc3)sc12", "Potency": "inconclusive: 39.8 µM [inhibitor, partial curve]"},
      {"smiles": "CCn1c(SCc2nc3ccccc3nc2C)nnc1-c1cccs1", "activity change, negative = inhibition": "inactive: -11.7%"},
      {"smiles": "COc1cccc(NC(=O)CSc2nc(O)c(C/C=C/c3ccccc3)c(=O)[nH]2)c1", "Potency": "inconclusive: 141 µM [inhibitor, single point]"},
      {"smiles": "O=Cc1cc(O)c(Br)cc1Br", "Potency": "inconclusive: 79.4 µM [inhibitor, single point]"},
      {"smiles": "Cc1cc(C)c(-c2nc3ccccc3s2)[nH]1", "activity change, negative = inhibition": "inactive: -21.8%"},
      {"smiles": "COc1ccc(C(=O)N2CCC3(CCCN(Cc4cc(C(F)(F)F)cc(C(F)(F)F)c4)C3)CC2)cc1", "Potency": "inconclusive: 35.5 µM [inhibitor, single point]"},
      {"smiles": "Cc1cc(C(=O)Nc2ccccc2C)n(-c2ccccc2)n1", "activity change, negative = inhibition": "inactive: 1.61%"},
      {"smiles": "O=C(Nc1ccccc1N1CCN(C(=O)c2ccc(Cl)cc2)CC1)c1cc2ccccc2o1", "activity change, negative = inhibition": "inactive: 0%"},
      {"smiles": "CC(C)Cn1c(COc2ccc(C(C)(C)C)cc2)n[nH]c1=S", "Potency": "inconclusive: 17.8 µM [inhibitor, partial curve, poor fit]"},
      {"smiles": "CC(=O)NS(=O)(=O)c1ccc(N2C(=O)CC(Sc3nccc(C)n3)C2=O)cc1", "note": "(configuration not stated)", "Potency": "inconclusive: 56.2 µM [inhibitor, partial curve, poor fit]"},
      {"smiles": "CN(C(=O)c1ccc(=O)n(Cc2ccc(Cl)cc2)c1)c1ccccc1", "Potency": "inconclusive: 158 µM [inhibitor, partial curve, poor fit]"},
      {"smiles": "NC(=O)c1c(NC(=S)Nc2ccc(F)cc2)sc2c1CCCC2", "Potency": "inconclusive: 44.7 µM [inhibitor, partial curve, poor fit]"},
      {"smiles": "COc1cc(C(=O)NC2CCN(C)CC2)ccc1Nc1ncc2c(n1)N(CCc1ccccc1)CCC(=O)N2C", "activity change, negative = inhibition": "inactive: -27.8%"},
      {"smiles": "O=C(O)c1ccc(NC2=Nc3cccc4cccc2c34)cc1", "Potency": "inconclusive: 39.8 µM [inhibitor, partial curve, poor fit]"},
      {"smiles": "Cc1ccc(C)c(CN2C(=O)c3ccccc3Sc3ccc(C(=O)NCc4ccco4)cc32)c1", "activity change, negative = inhibition": "inactive: -28.5%"},
      {"smiles": "Cc1cccc(OCc2ccc(-c3nc(C#N)c(N4CCN(c5ccccc5)CC4)o3)o2)c1", "activity change, negative = inhibition": "inactive: -30%"},
      {"smiles": "CCOC(=O)c1nc2nc(C)cc(=O)n2[nH]1", "Potency": "inconclusive: 39.8 µM [inhibitor, partial curve, poor fit]"},
      {"smiles": "O=C(Nc1ccc(N2CCOCC2)cc1)c1cccc(S(=O)(=O)N2CCC(Cc3ccccc3)CC2)c1", "activity change, negative = inhibition": "inactive: -3.53%"},
      {"smiles": "CCc1cccc(C)c1Nc1c(-c2ccc(N(C)C)cc2)nc2ncccn12", "Potency": "inconclusive: 100 µM [inhibitor, partial curve, poor fit]"},
      {"smiles": "O=C(CCc1ccccc1Cl)NC1CCN(C2CC2)C1", "note": "(configuration not stated)", "Potency": "inconclusive: 15.8 µM [inhibitor, full curve]"},
      {"smiles": "CC(Sc1ncccn1)C(=O)c1ccc(F)cc1", "note": "(configuration not stated)", "Potency": "inconclusive: 39.8 µM [inhibitor, partial curve, poor fit]"},
      {"smiles": "Cc1cc(C(=O)N2CCOC(Cc3cccc(C(F)(F)F)c3)C2)nn1C", "note": "(configuration not stated)", "activity change, negative = inhibition": "inactive: 37.9%"},
      {"smiles": "Cc1ccc(-n2ncc(C(=O)Nc3cc(Cl)ccc3C)c2C2CCNCC2)cc1C", "activity change, negative = inhibition": "inactive: -16.8%"},
      {"smiles": "O=C(N[C@@H]1CCN(Cc2ccc(-c3ccn[nH]3)o2)C[C@H]1O)c1cnccn1", "Potency": "inconclusive: 11.2 µM [inhibitor, full curve, poor fit]"},
      {"smiles": "Cc1noc(NS(=O)(=O)c2ccc(N/C=C\\C(=O)c3ccc(Br)cc3)cc2)c1C", "Potency": "inconclusive: 100 µM [inhibitor, single point]"},
      {"smiles": "COC(=O)CCCC1=CC2=C(c3ccccc3)C(=O)C(C)(OC(=O)C3CCCC3)C(=O)C2=CN1CC(C)C", "note": "(configuration not stated)", "Potency": "inconclusive: 8.91 µM [inhibitor, full curve]"},
      {"smiles": "Cc1ccc(NC(=O)CCS(=O)(=O)c2ccc(Br)s2)cc1", "activity change, negative = inhibition": "inactive: 0.136%"},
      {"smiles": "Cc1ccc(/C=C/C(=O)c2c(C)nc3ccccn23)cc1", "activity change, negative = inhibition": "inactive: 6.45%"},
      {"smiles": "CS(=O)(=O)N1C[C@H]2CCN(C(=O)c3ccc4cc[nH]c4c3)C[C@H]21", "activity change, negative = inhibition": "inactive: 5.32%"},
      {"smiles": "COCCN1C(=O)CO[C@H]2CN(S(C)(=O)=O)C[C@H]21", "activity change, negative = inhibition": "inactive: -0.871% [at 176 µM]"},
      {"smiles": "Cc1cc(C(=O)N2CCCCC2)c2c(C3CCCNC3)noc2n1", "note": "(configuration not stated)", "Potency": "inconclusive: 22.4 µM [inhibitor, partial curve, poor fit]"},
      {"smiles": "Cc1ccc(S(=O)(=O)N(CC(=O)NCCSC2CCCCC2)c2ccccc2F)cc1", "Potency": "inconclusive: 35.5 µM [inhibitor, partial curve, poor fit]"},
      {"smiles": "CC1CCC(NC(=O)C2(C)Cc3ccccc3C(=O)N2Cc2ccccc2Cl)CC1", "note": "(configuration not stated)", "Potency": "inconclusive: 141 µM [inhibitor, partial curve, poor fit]"},
      {"smiles": "C=CCNc1cccc2c1S(=O)(=O)N[C@H](C)CO2", "Potency": "inconclusive: 31.6 µM [inhibitor, partial curve, poor fit]"},
      {"smiles": "CN(C)c1ccc(-c2ccnc(N[C@H]3CO[C@H]4[C@@H]3OC[C@H]4OC(=O)Nc3cccc(C(F)(F)F)c3)n2)cc1", "Potency": "inconclusive: 39.8 µM [inhibitor, full curve]"},
      {"smiles": "CC(C)(/C=N/O)/[N+]([O-])=C/c1ccccc1", "Potency": "inconclusive: 112 µM [inhibitor, single point]"},
      {"smiles": "CN(Cc1cccc(C(F)(F)F)c1)C(=O)c1ccccc1F", "activity change, negative = inhibition": "inactive: 14.8% [at 176 µM]"},
      {"smiles": "CC(O)/C=C/c1cccc[n+]1C", "note": "(configuration not stated)", "Potency": "active: 17.8 µM"},
      {"smiles": "O=C(NC[C@H]1O[C@@H]2C[C@@H](CC(=O)N3CCOCC3)O[C@@H]2[C@@H]1O)Nc1cccnc1", "Potency": "inconclusive: 44.7 µM [inhibitor, partial curve]"},
      {"smiles": "O=C(NC1CCCC1)C1C(c2ccc(C(F)(F)F)cc2)=Nc2ccccc2N1C(=O)c1ccco1", "note": "(configuration not stated)", "activity change, negative = inhibition": "inactive: -23.9%"},
      {"smiles": "COc1ccc(CN2CCC3(COc4ncccc4[S+](=O)([O-])N3)C2)cc1", "note": "(configuration not stated)", "activity change, negative = inhibition": "inconclusive: -36.5% [inhibitor]"},
      {"smiles": "O=C(CSc1ccccc1)Nc1cc(Cl)ccc1C(=O)O", "Potency": "inconclusive: 50.1 µM [inhibitor, partial curve, poor fit]"},
      {"smiles": "COC(=O)c1scc(S(C)(=O)=O)c1-n1cccc1", "activity change, negative = inhibition": "inactive: 17.3%"},
      {"smiles": "COc1ccc(CC(=O)N(CCC2=CCCCC2)c2c(N)n(Cc3ccccc3)c(=O)[nH]c2=O)cc1OC", "Potency": "inconclusive: 158 µM [inhibitor, partial curve, poor fit]"},
      {"smiles": "Cc1ccc(CN2C[C@@H](Sc3nc(C)cc(C)n3)C[C@H]2C(=O)N2CCN(c3ccccc3F)CC2)cc1", "Potency": "inconclusive: 89.1 µM [inhibitor, single point]"},
      {"smiles": "CCc1ccc(OCC(=O)N/N=C(\\C)c2ccc3c(c2)OCCO3)cc1", "Potency": "inconclusive: 31.6 µM [inhibitor, partial curve, poor fit]"},
      {"smiles": "c1cncc(CN2CCn3c(nnc3C3CCCNC3)C2)c1", "note": "(configuration not stated)", "Potency": "inconclusive: 3.55 µM [inhibitor, full curve, poor fit]"},
      {"smiles": "O=C1/C(=C/c2ccccc2)CCc2ccc(Cl)nc21", "activity change, negative = inhibition": "inactive: 1.01%"},
      {"smiles": "CCCCn1c(N)c(N(Cc2ccccc2OC)C(=O)c2cc(=O)[nH]c3ccccc23)c(=O)[nH]c1=O", "Potency": "inconclusive: 44.7 µM [inhibitor, partial curve, poor fit]"},
      {"smiles": "NS(=O)(=O)c1ccc(NC(=S)Nc2cc(Cl)c(Cl)cc2Cl)cc1", "Potency": "inconclusive: 25.1 µM [inhibitor, partial curve]"},
      {"smiles": "CCCc1nc2ccc(Cl)cn2c1Cc1ccsc1", "Potency": "inconclusive: 126 µM [inhibitor, single point]"},
      {"smiles": "O=C(COC(=O)c1cc(Br)ccc1O)Nc1ccc2c(c1)OCCO2", "Potency": "inconclusive: 79.4 µM [inhibitor, partial curve, poor fit]"},
      {"smiles": "CCC1CN(CCNC(=O)c2ccccc2-n2cccn2)Cc2cc(OC)ccc2O1", "note": "(configuration not stated)", "activity change, negative = inhibition": "inactive: 13.9%"},
      {"smiles": "Cc1ccccc1CNC(=O)c1csc([C@H]2C[C@H](O)[C@@H](CO)O2)n1", "Potency": "inconclusive: 112 µM [inhibitor, single point]"},
      {"smiles": "Cc1cc(C)cc(NC(=O)NCCn2nnc3cc(S(=O)(=O)N(C)C)ccc32)c1", "Potency": "inconclusive: 141 µM [inhibitor, partial curve, poor fit]"},
      {"smiles": "Cc1cc(C)cc(-n2ccn3c(CCCC(=O)NCc4cccs4)nnc3c2=O)c1", "activity change, negative = inhibition": "inactive: 9.06%"},
      {"smiles": "COCCn1nnnc1C(CC(C)C)N1CCN(c2cccc(OC)c2)CC1", "note": "(configuration not stated)", "Potency": "inconclusive: 35.5 µM [inhibitor, partial curve, poor fit]"},
      {"smiles": "O=S1(=O)CC(N2CCN(c3ccccn3)CC2)CN1Cc1ccc(F)cc1", "note": "(configuration not stated)", "Potency": "inconclusive: 112 µM [inhibitor, single point]"},
      {"smiles": "O=C(Nc1ccc(F)c(F)c1)C1CCN(S(=O)(=O)c2cccs2)CC1", "Potency": "inconclusive: 28.2 µM [inhibitor, full curve, poor fit]"},
      {"smiles": "O=C(Nc1cc(-c2ccccc2)cs1)c1ccco1", "Potency": "inconclusive: 39.8 µM [inhibitor, partial curve, poor fit]"}
    ]}
  ]
}
